# Measurements published in PubChem BioAssay AID248 (DTP/NCI, 2004).
# The list does not hold the whole screen: its compounds were picked by chemical class. Not every dose and run of a compound is shown. T/C gives the treated animals as a percentage of the vehicle group. Some entries give survivors of the animals treated and no T/C: the source files T/C as zero there, which appears to mark a toxic dose or a test without result, not a measured value. Some survivor counts are full or nearly so, which does not show that the dose was tolerated: the source hardly ever lists a survival T/C far under the control, and the zero likely stands for such cases as well. Survivors were counted at the toxicity check, usually on the fifth day, unless a day is given; later deaths do not show. Schedules are NCI's codes, read here as Q, the interval in days (D) or hours (H), X, the number of doses. Where survival is the endpoint, the PubChem record calls one and a half times the control and up active, and a quarter to a half above the control has no call in these data; cut-offs in other NCI protocols can differ. Some doses were run more than once; the results are listed from low to high. Some schedules carry Z or #; the key to these is not given. Some entries show no survivor count and are marked so; the dose need not have been tolerated. Some T/C values carry the count of animals alive at the toxicity check (mostly the fifth day); without a count or a note in brackets, all were alive then.
# System: L1210 leukemia ip in BDF1 mice, survival T/C
# Experiment: NCI In Vivo Anticancer Drug Screen. Data for tumor model L1210 Leukemia (intraperitoneal) in B6D2F1 (BDF1) mice
# Conditions: T/C endpoint: mean survival time, higher T/C = longer survival
# [1] = dose: 100.0 mg/kg/injection, schedule: Q04DX003 (ip), vehicle: saline
# [2] = dose: 200.0 mg/kg/injection, schedule: Q04DX003 (ip), vehicle: saline
# [3] = dose: 100.0 mg/kg/injection, schedule: Q01DX009 (ip), vehicle: Klucel (hydroxypropylcellulose) (HPC)
# [4] = dose: 100.0 mg/kg/injection, schedule: Q04DX003 (ip), vehicle: Klucel (hydroxypropylcellulose) (HPC)
# [5] = dose: 200.0 mg/kg/injection, schedule: Q01DX009 (ip), vehicle: Klucel (hydroxypropylcellulose) (HPC)
# [6] = dose: 200.0 mg/kg/injection, schedule: Q04DX003 (ip), vehicle: Klucel (hydroxypropylcellulose) (HPC)
# [7] = dose: 400.0 mg/kg/injection, schedule: Q04DX003 (ip), vehicle: Klucel (hydroxypropylcellulose) (HPC)
# [8] = dose: 150.0 mg/kg/injection, schedule: Q01DX001 (ip), vehicle: saline
# [9] = dose: 300.0 mg/kg/injection, schedule: Q01DX001 (ip), vehicle: saline
# [10] = dose: 75.0 mg/kg/injection, schedule: Q01DX001 (ip), vehicle: other
# [11] = dose: 100.0 mg/kg/injection, schedule: Q01DX001 (ip), vehicle: saline
# [12] = dose: 200.0 mg/kg/injection, schedule: Q01DX001 (ip), vehicle: saline
# [13] = dose: 400.0 mg/kg/injection, schedule: Q01DX001 (ip), vehicle: saline
compound,measurement,setting,value
O=[N+]([O-])c1ccc(SSc2ccc([N+](=O)[O-])cc2[N+](=O)[O-])c([N+](=O)[O-])c1,T/C,"dose: 50.0 mg/kg/injection, schedule: Q01DX001 (ip), vehicle: carboxymethylcellulose (CMC)",98 % of control
same,survivor count,"dose: 100.0 mg/kg/injection, schedule: Q01DX001 (ip), vehicle: carboxymethylcellulose (CMC)",4 of 4
same,T/C,"dose: 100.0 mg/kg/injection, schedule: Q04DX003 (ip), vehicle: saline with Tween-80",95 % of control [5 of 6 alive]
same,survivor count,"dose: 200.0 mg/kg/injection, schedule: Q01DX001 (ip), vehicle: carboxymethylcellulose (CMC)",4 of 4
same,T/C,"dose: 200.0 mg/kg/injection, schedule: Q04DX003 (ip), vehicle: saline with Tween-80",94 % of control
same,T/C,"dose: 400.0 mg/kg/injection, schedule: Q01DX001 (ip), vehicle: carboxymethylcellulose (CMC)",95 % of control
same,T/C,"dose: 400.0 mg/kg/injection, schedule: Q04DX003 (ip), vehicle: saline with Tween-80",94 % of control
C1CCC2(CC1)C[N+]21CCCC1,T/C,"dose: 50.0 mg/kg/injection, schedule: Q04DX003 (ip), vehicle: saline",97 and 102 % of control
same,T/C,[1],97 and 101 % of control
same,T/C,[2],105 and 114 % of control
Cc1ccc(P(=S)(Cl)Cl)cc1,T/C,"dose: 25.0 mg/kg/injection, schedule: Q04DX003 (ip), vehicle: Klucel (hydroxypropylcellulose) (HPC)",97 % of control
same,T/C,"dose: 50.0 mg/kg/injection, schedule: Q01DX009 (ip), vehicle: Klucel (hydroxypropylcellulose) (HPC)",93 % of control [4 of 6 alive]
same,T/C,"dose: 50.0 mg/kg/injection, schedule: Q04DX003 (ip), vehicle: Klucel (hydroxypropylcellulose) (HPC)",91 % of control
same,survivor count,[3],3 of 6
same,T/C,[4],99 and 101 % of control
same,survivor count,[5],6 of 6
same,survivor count,[6],5 of 6
same,survivor count,[7],6 of 6
S=P1(N(CCCl)CCCl)NCCCO1 (centres undefined),T/C,"dose: 13.0 mg/kg/injection, schedule: Q01DX Z (ip), vehicle: methylcellulose (MC)",100 % of control
same,T/C,"dose: 26.0 mg/kg/injection, schedule: Q01DX Z (ip), vehicle: methylcellulose (MC)",96 % of control
same,T/C,"dose: 53.0 mg/kg/injection, schedule: Q01DX Z (ip), vehicle: methylcellulose (MC)",99 % of control
same,T/C,"dose: 116.0 mg/kg/injection, schedule: Q01DX Z (ip), vehicle: methylcellulose (MC)",100 % of control [4 of 6 alive]
CC(C)=N/N=C(\N)N[N+](=O)[O-],T/C,"dose: 75.0 mg/kg/injection, schedule: Q01DX001 (ip), vehicle: saline",101 % of control
same,T/C,"dose: 75.0 mg/kg/injection, schedule: Q04DX003 (ip), vehicle: saline",100 % of control
same,T/C,[8],101 % of control
same,T/C,"dose: 150.0 mg/kg/injection, schedule: Q04DX003 (ip), vehicle: saline",96 % of control
same,T/C,[9],108 % of control [5 of 6 alive]
same,survivor count,"dose: 300.0 mg/kg/injection, schedule: Q04DX003 (ip), vehicle: saline",1 of 6
O=[N+]([O-])c1ccc(-n2ncc([N+](=O)[O-])n2)c([N+](=O)[O-])c1,T/C,[10],107 % of control [survivor count not shown]
same,T/C,"dose: 150.0 mg/kg/injection, schedule: Q01DX001 (ip), vehicle: other",105 % of control [survivor count not shown]
CCNP(=O)(OCc1ccccc1)N(CCCl)CCCl (centres undefined),T/C,"dose: 16.0 mg/kg/injection, schedule: Q01DX Z (ip), vehicle: saline",95 % of control
same,T/C,"dose: 32.0 mg/kg/injection, schedule: Q01DX Z (ip), vehicle: saline",109 % of control
same,T/C,"dose: 64.0 mg/kg/injection, schedule: Q01DX Z (ip), vehicle: saline",109 % of control
same,T/C,"dose: 128.0 mg/kg/injection, schedule: Q01DX Z (ip), vehicle: saline",117 % of control
CCOP(N)(=O)OCC,T/C,"dose: 100.0 mg/kg/injection, schedule: Q01DX009 (ip), vehicle: saline",96 % of control
same,T/C,[1],100 % of control
same,T/C,"dose: 200.0 mg/kg/injection, schedule: Q01DX009 (ip), vehicle: saline",94 % of control
same,T/C,[2],100 % of control
same,T/C,"dose: 400.0 mg/kg/injection, schedule: Q01DX009 (ip), vehicle: saline",91 % of control
same,T/C,"dose: 400.0 mg/kg/injection, schedule: Q04DX003 (ip), vehicle: saline",110 % of control
O=C(/C=C/c1ccc([N+](=O)[O-])cc1[N+](=O)[O-])c1cccc([N+](=O)[O-])c1,T/C,"dose: 100.0 mg/kg/injection, schedule: Q04DX002 (ip), vehicle: Klucel (hydroxypropylcellulose) (HPC)",103 % of control
same,T/C,"dose: 200.0 mg/kg/injection, schedule: Q04DX002 (ip), vehicle: Klucel (hydroxypropylcellulose) (HPC)",103 % of control
same,T/C,"dose: 400.0 mg/kg/injection, schedule: Q04DX002 (ip), vehicle: Klucel (hydroxypropylcellulose) (HPC)",100 % of control
CN(C)[N+](=O)[O-],T/C,"dose: 80.0 mg/kg/injection, schedule: Q04DX003 (ip), vehicle: saline",107 % of control [survivor count not shown]
same,T/C,"dose: 160.0 mg/kg/injection, schedule: Q04DX003 (ip), vehicle: saline",96 % of control [survivor count not shown]
same,T/C,"dose: 320.0 mg/kg/injection, schedule: Q04DX003 (ip), vehicle: saline",104 % of control [survivor count not shown]
O=C(O)C(CSSCC(Nc1ccc([N+](=O)[O-])cc1[N+](=O)[O-])C(=O)O)Nc1ccc([N+](=O)[O-])cc1[N+](=O)[O-] (centres undefined),T/C,[11],107 % of control
same,T/C,[12],101 % of control
same,T/C,[13],105 % of control [5 of 6 alive]
CCN(CC)CCOC(=O)C(O)(c1ccccc1)c1ccc(C)cc1C (centres undefined),T/C,[10],93 % of control
Nc1cc([As]=O)ccc1O (centres undefined),T/C,"dose: 9.5 mg/kg/injection, schedule: Q01DX001 (ip), vehicle: other",103 % of control
same,T/C,"dose: 19.0 mg/kg/injection, schedule: Q01DX001 (ip), vehicle: other",91 % of control
same,T/C,"dose: 38.0 mg/kg/injection, schedule: Q01DX001 (ip), vehicle: other",105 % of control
NP(=O)(OCCCO)N(CCCl)CCCl (centres undefined),T/C,"dose: 125.0 mg/kg/injection, schedule: Q01DX001 (ip), vehicle: saline",91 % of control
same,T/C,[8],102 % of control
same,T/C,"dose: 250.0 mg/kg/injection, schedule: Q01DX001 (ip), vehicle: saline",96 % of control
same,T/C,[9],113 % of control
same,T/C,"dose: 500.0 mg/kg/injection, schedule: Q01DX001 (ip), vehicle: saline",103 % of control
same,T/C,"dose: 1000.0 mg/kg/injection, schedule: Q01DX001 (ip), vehicle: saline",94 % of control
CN(Nc1c([N+](=O)[O-])cc([N+](=O)[O-])cc1[N+](=O)[O-])c1ccccc1,T/C,[3],113 % of control [survivor count not shown]
same,T/C,[4],102 % of control [survivor count not shown]
same,T/C,[5],98 % of control [survivor count not shown]
same,T/C,[6],96 % of control [survivor count not shown]
same,T/C,"dose: 400.0 mg/kg/injection, schedule: Q01DX009 (ip), vehicle: Klucel (hydroxypropylcellulose) (HPC)",112 % of control [survivor count not shown]
same,T/C,[7],94 % of control [survivor count not shown]
CCOP1OCC(c2ccccc2)O1 (centres undefined),T/C,[11],96 % of control
same,T/C,[12],107 % of control
same,T/C,[13],96 % of control
Cc1c(F)c(-c2c(F)c(C)c([N+](=O)[O-])c(C)c2[N+](=O)[O-])c([N+](=O)[O-])c(C)c1[N+](=O)[O-],T/C,"dose: 100.0 mg/kg/injection, schedule: Q01DX001 (ip), vehicle: Klucel (hydroxypropylcellulose) (HPC)",100 % of control
same,T/C,[4],101 % of control
same,T/C,"dose: 200.0 mg/kg/injection, schedule: Q01DX001 (ip), vehicle: Klucel (hydroxypropylcellulose) (HPC)",97 % of control
same,T/C,[6],90 % of control
same,T/C,"dose: 400.0 mg/kg/injection, schedule: Q01DX001 (ip), vehicle: Klucel (hydroxypropylcellulose) (HPC)",100 % of control
same,T/C,[7],87 % of control
